Source: publication PMC12583604
Results are given in words; binding and its absence hold for the method and conditions named. In cells and extracts the contact can be indirect. A yes stands for co-enrichment or nearness to the bait. Other partners may have been found.

Amino acid sequences for entries named in this document (tags omitted).
UniProt Q6BDS2: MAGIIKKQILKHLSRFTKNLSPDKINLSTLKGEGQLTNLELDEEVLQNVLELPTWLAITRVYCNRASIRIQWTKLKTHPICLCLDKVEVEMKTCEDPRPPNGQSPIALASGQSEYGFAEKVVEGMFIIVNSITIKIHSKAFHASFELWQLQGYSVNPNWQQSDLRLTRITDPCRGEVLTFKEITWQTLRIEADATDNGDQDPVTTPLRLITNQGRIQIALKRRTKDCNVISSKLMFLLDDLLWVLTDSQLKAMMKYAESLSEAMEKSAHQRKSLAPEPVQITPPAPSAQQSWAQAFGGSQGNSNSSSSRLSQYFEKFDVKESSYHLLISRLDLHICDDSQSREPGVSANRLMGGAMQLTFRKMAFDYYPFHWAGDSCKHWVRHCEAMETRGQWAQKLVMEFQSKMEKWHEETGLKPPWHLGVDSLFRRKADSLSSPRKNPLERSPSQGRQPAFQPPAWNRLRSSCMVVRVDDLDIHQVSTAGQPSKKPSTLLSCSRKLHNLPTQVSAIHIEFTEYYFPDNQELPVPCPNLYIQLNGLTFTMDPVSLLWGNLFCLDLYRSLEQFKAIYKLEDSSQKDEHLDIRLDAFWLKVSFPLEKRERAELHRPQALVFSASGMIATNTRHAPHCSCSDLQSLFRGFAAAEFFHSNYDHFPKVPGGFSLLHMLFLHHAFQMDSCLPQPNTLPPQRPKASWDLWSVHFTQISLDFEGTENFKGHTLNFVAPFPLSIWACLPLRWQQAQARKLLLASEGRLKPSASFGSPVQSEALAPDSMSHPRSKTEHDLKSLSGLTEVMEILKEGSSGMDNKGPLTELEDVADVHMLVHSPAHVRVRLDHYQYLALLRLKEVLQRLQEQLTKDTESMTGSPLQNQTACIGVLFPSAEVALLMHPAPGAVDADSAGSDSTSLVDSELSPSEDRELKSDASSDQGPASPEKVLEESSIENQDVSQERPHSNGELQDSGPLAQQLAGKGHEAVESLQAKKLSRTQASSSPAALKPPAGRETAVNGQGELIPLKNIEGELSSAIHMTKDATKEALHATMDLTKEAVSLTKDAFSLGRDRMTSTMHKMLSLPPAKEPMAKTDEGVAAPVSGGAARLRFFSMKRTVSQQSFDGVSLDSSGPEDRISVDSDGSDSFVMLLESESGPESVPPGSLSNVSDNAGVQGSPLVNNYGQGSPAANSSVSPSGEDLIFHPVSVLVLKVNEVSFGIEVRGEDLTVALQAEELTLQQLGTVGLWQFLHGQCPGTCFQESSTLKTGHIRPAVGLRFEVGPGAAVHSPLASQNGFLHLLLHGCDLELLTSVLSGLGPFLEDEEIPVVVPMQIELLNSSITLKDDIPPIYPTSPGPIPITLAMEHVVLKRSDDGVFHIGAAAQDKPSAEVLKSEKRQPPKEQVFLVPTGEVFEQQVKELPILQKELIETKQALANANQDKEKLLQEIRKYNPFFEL
UniProt O95166: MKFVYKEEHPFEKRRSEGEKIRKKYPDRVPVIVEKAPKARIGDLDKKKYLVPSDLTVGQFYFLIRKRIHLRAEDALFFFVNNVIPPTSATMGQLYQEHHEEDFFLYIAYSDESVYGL

B1: melanophilin (MLPH) (protein, UniProt Q9BV36 1-600)
chain: MGKKLDLSKLTDEEAQHVLEVVQRDFDLRRKEEERLEALKGKIKKESSKRELLSDTAHLNETHCARCLQPYQLLVNSKRQCLECGLFTCKSCGRVHPEEQGWICDPCHLARVVKIGSLEWYYEHVKARFKRFGSAKVIRSLHGRLQGGAGPELISEERSGDSDQTDEDGEPGSEAQAQAQPFGSKKKRLLSVHDFDFEGDSDDSTQPQGHSLHLSSVPEARDSPQSLTDESCSEKAAPHKAEGLEEADTGASGCHSHPEEQPTSISPSRHGALAELCPPGGSHRMALGTAAALGSNVIRNEQLPLQYLADVDTSDEESIRAHVMASHHSKRRGRASSESQIFELNKHISAVECLLTYLENTVVPPLAKGLGAGVRTEADVEEEALRRKLEELTSNVSDQETSSEEEEAKDEKAEPNRDKSVGPLPQADPEVGTAAHQTNRQEKSPQDPGDPVQYNRTTDEELSELEDRVAVTASEVQQAESEVSDIESRIAALRAAGLTVKPSGKPRRKSNLPIFLPRVAGKLGKRPEDPNADPSSEAKAMAVPYLLRRKFSNSLKSQGKDDDSFDRKSVYRGSLTQRNPNARKGMASHTFAKPVVAHQS
B2: Rab27B (protein, UniProt O00194 1-218)
chain: MTDGDYDYLIKLLALGDSGVGKTTFLYRYTDNKFNPKFITTVGIDFREKRVVYNAQGPNGSSGKAFKVHLQLWDTAGQERFRSLTTAFFRDAMGFLLMFDLTSQQSFLNVRNWMSQLQANAYCENPDIVLIGNKADLPDQREVNERQARELADKYGIPYFETSAATGQNVEKAVETLLDLIMKRMEQCVEKTQIPDTVNGGNSGNLDGEKPPEKKCIC

The molecules below were run against bridge-like lipid transfer protein 3A (BLTP3A), endogenously tagged with an internal V5 epitope (BLTP3A^V5) (human (endogenous in A549)) (UniProt Q6BDS2) (assay: affinity purification with mass spectrometry; anti-V5 magnetic resin (V5-Trap) on lysates of A549 cells with endogenously tagged BLTP3A^V5; 50 mM Tris pH 7.6, 150 mM NaCl, 1% Triton X-100, 4 °C, 2 h; unedited A549 cells as control; n = 3; dia-PASEF mass spectrometry).

binding, binds:
GABARAP (from UniProt O95166 1-117), B1, B2
